Source: publication PMC4743010

T1: FLAG-UPF1 (pcIneo-FLAG-UPF1) (UniProt Q92900)
T1 sequence: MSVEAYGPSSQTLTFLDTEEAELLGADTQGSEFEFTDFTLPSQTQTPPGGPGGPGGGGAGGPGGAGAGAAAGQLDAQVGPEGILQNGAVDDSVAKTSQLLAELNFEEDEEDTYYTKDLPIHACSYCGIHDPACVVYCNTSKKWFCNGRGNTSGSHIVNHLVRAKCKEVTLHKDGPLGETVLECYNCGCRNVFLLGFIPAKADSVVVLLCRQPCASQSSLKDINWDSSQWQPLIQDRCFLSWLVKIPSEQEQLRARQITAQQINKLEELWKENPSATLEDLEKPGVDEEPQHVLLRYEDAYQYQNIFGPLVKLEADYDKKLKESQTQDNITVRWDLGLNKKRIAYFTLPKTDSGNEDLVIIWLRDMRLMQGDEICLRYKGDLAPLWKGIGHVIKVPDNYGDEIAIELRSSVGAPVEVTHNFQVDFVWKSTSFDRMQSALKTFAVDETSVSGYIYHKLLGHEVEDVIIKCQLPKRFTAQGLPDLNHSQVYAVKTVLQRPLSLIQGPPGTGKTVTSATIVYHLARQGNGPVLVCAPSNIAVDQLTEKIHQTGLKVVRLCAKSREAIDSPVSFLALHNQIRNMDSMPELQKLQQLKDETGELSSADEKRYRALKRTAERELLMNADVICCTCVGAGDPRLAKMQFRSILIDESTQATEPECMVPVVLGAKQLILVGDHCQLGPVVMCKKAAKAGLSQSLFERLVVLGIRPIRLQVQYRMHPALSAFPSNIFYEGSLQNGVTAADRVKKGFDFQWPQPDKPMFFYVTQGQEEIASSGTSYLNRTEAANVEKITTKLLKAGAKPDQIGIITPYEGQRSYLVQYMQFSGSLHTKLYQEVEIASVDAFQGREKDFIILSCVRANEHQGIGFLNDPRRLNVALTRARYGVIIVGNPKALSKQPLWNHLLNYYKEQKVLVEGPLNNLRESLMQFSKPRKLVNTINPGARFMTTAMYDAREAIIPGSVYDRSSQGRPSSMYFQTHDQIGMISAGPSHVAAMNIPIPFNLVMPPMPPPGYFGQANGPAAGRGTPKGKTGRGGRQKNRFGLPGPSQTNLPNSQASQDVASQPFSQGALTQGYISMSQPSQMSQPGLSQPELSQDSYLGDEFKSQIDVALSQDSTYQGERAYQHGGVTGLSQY

T2: purified FLAG-tagged full-length UPF1 (UniProt Q92900)
T2 sequence: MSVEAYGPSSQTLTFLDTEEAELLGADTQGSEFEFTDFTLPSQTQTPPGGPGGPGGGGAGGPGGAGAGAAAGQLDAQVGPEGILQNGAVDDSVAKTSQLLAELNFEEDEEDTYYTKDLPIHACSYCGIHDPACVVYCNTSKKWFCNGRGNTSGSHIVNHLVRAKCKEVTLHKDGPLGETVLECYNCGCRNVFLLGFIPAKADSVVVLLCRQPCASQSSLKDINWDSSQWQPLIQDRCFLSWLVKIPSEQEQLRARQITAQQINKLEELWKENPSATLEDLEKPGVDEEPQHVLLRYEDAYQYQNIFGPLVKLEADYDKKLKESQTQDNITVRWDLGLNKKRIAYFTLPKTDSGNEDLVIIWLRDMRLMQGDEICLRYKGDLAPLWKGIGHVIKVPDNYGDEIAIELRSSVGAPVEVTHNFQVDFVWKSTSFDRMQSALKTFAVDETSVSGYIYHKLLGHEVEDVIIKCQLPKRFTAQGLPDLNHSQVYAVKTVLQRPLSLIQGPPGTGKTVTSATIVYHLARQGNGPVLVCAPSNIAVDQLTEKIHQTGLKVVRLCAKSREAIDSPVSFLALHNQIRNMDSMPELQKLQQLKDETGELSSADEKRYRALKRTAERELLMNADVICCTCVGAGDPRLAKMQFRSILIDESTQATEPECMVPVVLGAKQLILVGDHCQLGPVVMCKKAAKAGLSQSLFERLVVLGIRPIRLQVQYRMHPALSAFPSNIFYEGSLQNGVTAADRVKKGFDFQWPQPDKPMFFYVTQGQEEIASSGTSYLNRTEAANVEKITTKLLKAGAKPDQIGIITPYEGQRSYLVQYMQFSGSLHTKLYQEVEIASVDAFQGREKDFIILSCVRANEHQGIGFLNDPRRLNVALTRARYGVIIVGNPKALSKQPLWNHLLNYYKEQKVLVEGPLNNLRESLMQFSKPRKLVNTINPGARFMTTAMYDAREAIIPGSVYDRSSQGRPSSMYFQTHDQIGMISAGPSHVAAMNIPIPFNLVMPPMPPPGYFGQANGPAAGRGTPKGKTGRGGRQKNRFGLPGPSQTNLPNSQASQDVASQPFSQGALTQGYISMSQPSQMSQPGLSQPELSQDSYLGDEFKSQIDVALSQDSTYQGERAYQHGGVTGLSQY


Experiments:
[1] = target: T1, FLAG-UPF1 (pcIneo-FLAG-UPF1); test: co-IP; FLAG-UPF1 or FLAG-GFP co-transfected with T7-DHX34 constructs in HEK293T; anti-FLAG immunoprecipitates probed for T7-DHX34 constructs
[2] = target: His-UPF1 (residues 115–914) (UniProt Q92900); test: pull-down; co-incubation of purified T7-DHX34 (full-length, ΔCTD, 1–809) with purified FLAG-tagged full-length UPF1 or UPF1 (115–914); performed as described previously (ref. 38); both purified
[3] = target: T2, purified FLAG-tagged full-length UPF1; test: as above
[4] = target: FLAG-HA-SBP-SMG1C (SMG1–SMG8–SMG9 complex); test: negative-stain single-particle electron microscopy; SMG1C and DHX34 mixed at 1:1.5 molar ratio, fixed with 0.02% glutaraldehyde 10 min at 25 °C, stained with 1% uranyl formate; 13,080 images of the complex, 3D structure at about 21 Å; both purified
[5] = target: FLAG-HA-SBP-SMG1C (SMG1–SMG8–SMG9 complex); test: pull-down; FLAG-HA-SBP-SMG1C (17 nM) or SBP-GFP mixed with a three-fold molar excess of FLAG-DHX34 (full length or ΔCTD) in 20 mM Tris-HCl pH 7.5, 100 mM NaCl, 2.5 mM MgCl2, 0.5 mM DTT, 0.01% Tween 20, 4 °C; bound to Streptavidin Sepharose, eluted with 2 mM biotin; anti-FLAG western blot; both purified
[6] = target: His-UPF1 (residues 115–914) (UniProt Q92900); test: pull-down; His-UPF1 (115–914) 0.4 μM with two-fold molar excess of FLAG-DHX34 and/or 15 nM FLAG-HA-SBP-SMG1C in 40 mM Tris-HCl pH 7.5, 200 mM NaCl, 10% glycerol, 20 mM imidazole, 1 mM MgCl2, 1 μM ZnCl2, 2 mM DTT, 0.1% NP-40; 20 min 25 °C; Ni-NTA agarose, eluted with 500 mM imidazole; anti-FLAG and anti-His blots; both purified

| binding [1] | binding [2] | Molecule | also measured |
| --- | --- | --- | --- |
| binds | binds | T7-DHX34 ΔCTD (from UniProt Q14147) (domain or fragment) | binding [3]: binds |
| binds |  | T7-DHX34 ΔOB (from UniProt Q14147) (enzyme) |  |
|  |  | FLAG-DHX34 full-length (enzyme, UniProt Q14147 1-1143) MPPPRTREGRDRRDHHRAPSEEEALEKWDWNCPETRRLLEDAFFREEDYIRQGSEECQKFWTFFERLQRFQNLKTSRKEEKDPGQPKHSIPALADLPRTYDPRYRINLSVLGPATRGSQGLGRHLPAERVAEFRRALLHYLDFGQKQAFGRLAKLQRERAALPIAQYGNRILQTLKEHQVVVVAGDTGCGKSTQVPQYLLAAGFSHVACTQPRRIACISLAKRVGFESLSQYGSQVGYQIRFESTRSAATKIVFLTVGLLLRQIQREPSLPQYEVLIVDEVHERHLHNDFLLGVLQRLLPTRPDLKVILMSATINISLFSSYFSNAPVVQVPGRLFPITVVYQPQEAEPTTSKSEKLDPRPFLRVLESIDHKYPPEERGDLLVFLSGMAEISAVLEAAQTYASHTQRWVVLPLHSALSVADQDKVFDVAPPGVRKCILSTNIAETSVTIDGIRFVVDSGKVKEMSYDPQAKLQRLQEFWISQASAEQRKGRAGRTGPGVCFRLYAESDYDAFAPYPVPEIRRVALDSLVLQMKSMSVGDPRTFPFIEPPPPASLETAILYLRDQGALDSSEALTPIGSLLAQLPVDVVIGKMLILGSMFSLVEPVLTIAAALSVQSPFTRSAQSSPECAAARRPLESDQGDPFTLFNVFNAWVQVKSERSRNSRKWCRRRGIEEHRLYEMANLRRQFKELLEDHGLLAGAQAAQVGDSYSRLQQRRERRALHQLKRQHEEGAGRRRKVLRLQEEQDGGSSDEDRAGPAPPGASDGVDIQDVKFKLRHDLAQLQAAASSAQDLSREQLALLKLVLGRGLYPQLAVPDAFNSSRKDSDQIFHTQAKQGAVLHPTCVFAGSPEVLHAQELEASNCDGSRDDKDKMSSKHQLLSFVSLLETNKPYLVNCVRIPALQSLLLFSRSLDTNGDCSRLVADGWLELQLADSESAIRLLAASLRLRARWESALDRQLAHQAQQQLEEEEEDTPVSPKEVATLSKELLQFTASKIPYSLRRLTGLEVQNMYVGPQTIPATPHLPGLFGSSTLSPHPTKGGYAVTDFLTYNCLTNDTDLYSDCLRTFWTCPHCGLHAPLTPLERIAHENTCPQAPQDGPPGAEEAALETLQKTSVLQRPYHCEACGKDFLFTPTEVLRHRKQHV | binding [4]: binds; binding [5]: binds; binding [6]: binds |
|  | binds | T7-DHX34 full-length (enzyme, UniProt Q14147 1-1143) MPPPRTREGRDRRDHHRAPSEEEALEKWDWNCPETRRLLEDAFFREEDYIRQGSEECQKFWTFFERLQRFQNLKTSRKEEKDPGQPKHSIPALADLPRTYDPRYRINLSVLGPATRGSQGLGRHLPAERVAEFRRALLHYLDFGQKQAFGRLAKLQRERAALPIAQYGNRILQTLKEHQVVVVAGDTGCGKSTQVPQYLLAAGFSHVACTQPRRIACISLAKRVGFESLSQYGSQVGYQIRFESTRSAATKIVFLTVGLLLRQIQREPSLPQYEVLIVDEVHERHLHNDFLLGVLQRLLPTRPDLKVILMSATINISLFSSYFSNAPVVQVPGRLFPITVVYQPQEAEPTTSKSEKLDPRPFLRVLESIDHKYPPEERGDLLVFLSGMAEISAVLEAAQTYASHTQRWVVLPLHSALSVADQDKVFDVAPPGVRKCILSTNIAETSVTIDGIRFVVDSGKVKEMSYDPQAKLQRLQEFWISQASAEQRKGRAGRTGPGVCFRLYAESDYDAFAPYPVPEIRRVALDSLVLQMKSMSVGDPRTFPFIEPPPPASLETAILYLRDQGALDSSEALTPIGSLLAQLPVDVVIGKMLILGSMFSLVEPVLTIAAALSVQSPFTRSAQSSPECAAARRPLESDQGDPFTLFNVFNAWVQVKSERSRNSRKWCRRRGIEEHRLYEMANLRRQFKELLEDHGLLAGAQAAQVGDSYSRLQQRRERRALHQLKRQHEEGAGRRRKVLRLQEEQDGGSSDEDRAGPAPPGASDGVDIQDVKFKLRHDLAQLQAAASSAQDLSREQLALLKLVLGRGLYPQLAVPDAFNSSRKDSDQIFHTQAKQGAVLHPTCVFAGSPEVLHAQELEASNCDGSRDDKDKMSSKHQLLSFVSLLETNKPYLVNCVRIPALQSLLLFSRSLDTNGDCSRLVADGWLELQLADSESAIRLLAASLRLRARWESALDRQLAHQAQQQLEEEEEDTPVSPKEVATLSKELLQFTASKIPYSLRRLTGLEVQNMYVGPQTIPATPHLPGLFGSSTLSPHPTKGGYAVTDFLTYNCLTNDTDLYSDCLRTFWTCPHCGLHAPLTPLERIAHENTCPQAPQDGPPGAEEAALETLQKTSVLQRPYHCEACGKDFLFTPTEVLRHRKQHV |  |
|  | binds | T7-DHX34 (1–809) (domain or fragment, UniProt Q14147 1-809) MPPPRTREGRDRRDHHRAPSEEEALEKWDWNCPETRRLLEDAFFREEDYIRQGSEECQKFWTFFERLQRFQNLKTSRKEEKDPGQPKHSIPALADLPRTYDPRYRINLSVLGPATRGSQGLGRHLPAERVAEFRRALLHYLDFGQKQAFGRLAKLQRERAALPIAQYGNRILQTLKEHQVVVVAGDTGCGKSTQVPQYLLAAGFSHVACTQPRRIACISLAKRVGFESLSQYGSQVGYQIRFESTRSAATKIVFLTVGLLLRQIQREPSLPQYEVLIVDEVHERHLHNDFLLGVLQRLLPTRPDLKVILMSATINISLFSSYFSNAPVVQVPGRLFPITVVYQPQEAEPTTSKSEKLDPRPFLRVLESIDHKYPPEERGDLLVFLSGMAEISAVLEAAQTYASHTQRWVVLPLHSALSVADQDKVFDVAPPGVRKCILSTNIAETSVTIDGIRFVVDSGKVKEMSYDPQAKLQRLQEFWISQASAEQRKGRAGRTGPGVCFRLYAESDYDAFAPYPVPEIRRVALDSLVLQMKSMSVGDPRTFPFIEPPPPASLETAILYLRDQGALDSSEALTPIGSLLAQLPVDVVIGKMLILGSMFSLVEPVLTIAAALSVQSPFTRSAQSSPECAAARRPLESDQGDPFTLFNVFNAWVQVKSERSRNSRKWCRRRGIEEHRLYEMANLRRQFKELLEDHGLLAGAQAAQVGDSYSRLQQRRERRALHQLKRQHEEGAGRRRKVLRLQEEQDGGSSDEDRAGPAPPGASDGVDIQDVKFKLRHDLAQLQAAASSAQDLSREQLALLKLVLGRGLY |  |

Results are given in words; binding and its absence hold for the method and conditions named. A result given as binding can be weak or reduced; the word gives no strength. For part of these data: Where a sequence is shown, tags or fusion partners need not be part of it. For part of these data: Binding seen in cells or lysates may run through a third protein.
